Read-outs that look alike come from different tables or passages of the source. For at least one compound, name, drawing or mass did not settle the structure. Marks after values point to notes of the source that are not given here. Some of these results come from one statement about several compounds together.
Assays:
[1] = Drug encapsulation efficiency in PLGA particles; type: physicochemical; conditions: determined using 3H-dexamethasone
Method: The clear organic mixture was emulsified into an external aqueous phase (5 ml, 2% w/v PVA) with vortexing for 20 seconds followed by sonication on ice at 55 W for 5 minutes. […] Nanospheres were harvested by ultracentrifugation at 16,000 g for 10 min, after which the resultant pellet was re-suspended in DI water by sonication and washed twice with DI water. […] Dynamic light scattering (DLS) was used to characterize the size of the nanospheres. To investigate nanosphere encapsulation in thermo-responsive hydrogels, nanospheres were added into the hydrogel precursor solutions at 0, 2.5, 5, and 10 mg/ml prior to polymerization initiated by the addition of TEMED. The hydrogels were then washed 5 times with PBS every 20 minutes, as described for hydrogels with no nanospheres. Swelling ratio was tested for hydrogels with varying concentration of nanospheres at both room and body temperature.
The drug concentration was determined spectrophotometrically at 240 nm. […] The encapsulation efficiency was calculated as (actual drug loaded/total drug used)×100%.

[2] = tested on: endotoxin-induced uveitis (EIU) animal model

C[C@@H]1C[C@H]2[C@@H]3CCC4=CC(=O)C=C[C@]4(C)[C@@]3(F)[C@@H](O)C[C@]2(C)[C@@]1(O)C(=O)CO [dexamethasone]
Encapsulation efficiency ([1]; Microspheres): 7.5%*
Encapsulation efficiency ([1]; Nanospheres): 10%*
P (oil/water) (Methylene chloride + methanol / 0.2% PVA): 2.9
P (oil/water) (Methylene chloride + methanol / 2% PVA): 12.3
P (oil/water) (Methylene chloride + methanol / 2% PVA + 0.25N (NH4)2SO4): 6.0
P (oil/water) (Methylene chloride + methanol / 2% PVA + 0.5N NaCl): 9.6
increase in partition coefficient ([…]): 3-5 fold
P=[dex]o/[dex]w (methylene chloride-methanol (O) and 0.2% PVA solution (W), equal volume): 2.93
potency relative to clinical dexamethasone sodium phosphate ([2]; 10 mg/ml vs. 4 mg/ml dose concentration): less potent
vasotone of retinal vessels ([2]; day 6, intravitreal treatment): returned near normal

Reference: patent publication US20120231072A1, “THERMO-RESPONSIVE HYDROGEL COMPOSITIONS” (Chemisches Institut Schaefer AG, priority 2011, published 2012)
